The list is a part of this screen's results and no random one: it is rich in T/C values a quarter to a half above the control, in often repeated tests (any T/C) and in doses without a T/C. Further doses and runs are listed elsewhere. T/C is the treated group as % of the vehicle group. Some entries give survivors of the animals treated and no T/C: the source files T/C as zero there, which appears to mark a toxic dose or a test without result, not a measured value. Some survivor counts are full or nearly so, which does not show that the dose was tolerated: survival well below the control is almost never listed, so the zero probably covers shortened survival too. Counts of survivors are from the toxicity check (mostly the fifth day) where no day follows; animals may have died later. Schedule codes are those of the source, read here as Q, the interval in days (D) or hours (H), X, the number of doses. Some schedules carry Z or #; the key to these is not given. Where survival is the endpoint, this PubChem deposit counts one and a half times the control or more as active, and values a quarter to a half above the control carry no call in these data; other NCI protocols may use other cut-offs. Some entries were tested several times; the results are listed from low to high.
Tested on: L1210 leukemia ip in BDF1 mice, survival T/C
Test: NCI In Vivo Anticancer Drug Screen. Data for tumor model L1210 Leukemia (intraperitoneal) in B6D2F1 (BDF1) mice
Settings: T/C endpoint: mean survival time, higher T/C = longer survival
[1] = dose: 400.0 mg/kg/injection, schedule: Q04DX002 (ip), vehicle: Klucel (hydroxypropylcellulose) (HPC)

For `O=C(NP(=O)(N1CC1)N1CC1)OCc1ccccc1`, the T/C (dose: 6.0 mg/kg/injection, schedule: Q01DX Z (ip), vehicle: saline) was 148 % of control, the survivor count (dose: 10.0 mg/kg/injection, schedule: Q01DX006 (iv), vehicle: clinical formulation) was 6 of 6 and the survivor count (dose: 10.0 mg/kg/injection, schedule: Q01DX Z (ip), vehicle: clinical formulation) was 6 of 6. For the same molecule, the T/C (dose: 12.0 mg/kg/injection, schedule: Q01DX Z (ip), vehicle: saline) was 125 and 129 % of control, the survivor count (dose: 20.0 mg/kg/injection, schedule: Q01DX006 (iv), vehicle: clinical formulation) was 5 of 6 and the survivor count (dose: 20.0 mg/kg/injection, schedule: Q01DX Z (ip), vehicle: clinical formulation) was 6 of 6. The T/C (dose: 25.0 mg/kg/injection, schedule: Q01DX006 (iv), vehicle: clinical formulation) was 141 % of control, the survivor count (dose: 40.0 mg/kg/injection, schedule: Q01DX006 (iv), vehicle: clinical formulation) was 5 of 6 and the T/C (dose: 40.0 mg/kg/injection, schedule: Q01DX006 (iv), vehicle: saline) was 145 % of control. For the same molecule, the survivor count (dose: 40.0 mg/kg/injection, schedule: Q01DX Z (ip), vehicle: clinical formulation) was 6 of 6, the T/C (dose: 50.0 mg/kg/injection, schedule: Q01DX009 (ip), vehicle: saline) was 139 % of control and the survivor count (dose: 80.0 mg/kg/injection, schedule: Q01DX006 (iv), vehicle: clinical formulation) was 6 of 6. The survivor count (dose: 96.0 mg/kg/injection, schedule: Q01DX Z (ip), vehicle: saline) was 6 of 6.
For `Nc1cc2ccncc2c2ccccc12`, the survivor count (dose: 400.0 mg/kg/injection, schedule: Q04DX003 (ip), vehicle: Klucel (hydroxypropylcellulose) (HPC)) was 3 of 6.
For `O=[N+]([O-])c1ccc(C(Cl)S(=O)(=O)c2ccccc2)cc1` (stereo not given), the T/C [1] was 129 and 136 % of control.
For `O=C(O)c1cc2ccccc2cc1Sc1ccccc1`, the survivor count (dose: 400.0 mg/kg/injection, schedule: Q04DX003 (ip), vehicle: saline with Tween-80) was 2 of 6.
`O=C(/C=N/O)/C=N/O` (tested in a mixture with another compound) was tested, and the survivor count (dose: 50.0 mg/kg/injection, schedule: Q04DX003 (ip), vehicle: saline) was 2 of 6, the survivor count (dose: 100.0 mg/kg/injection, schedule: Q04DX003 (ip), vehicle: saline) was 2 of 6 and the survivor count (dose: 200.0 mg/kg/injection, schedule: Q04DX003 (ip), vehicle: saline) was 0 of 6. The survivor count (dose: 400.0 mg/kg/injection, schedule: Q04DX003 (ip), vehicle: saline) was 0 of 6.
With `NC(CSS(=O)(=O)O)=NCCCCOc1ccccc1` the survivor count (dose: 25.0 mg/kg/injection, schedule: Q04DX002 (ip), vehicle: Klucel (hydroxypropylcellulose) (HPC)) was 3 of 3, the survivor count (dose: 50.0 mg/kg/injection, schedule: Q04DX002 (ip), vehicle: Klucel (hydroxypropylcellulose) (HPC)) was 0 of 3 and the survivor count (dose: 100.0 mg/kg/injection, schedule: Q04DX002 (ip), vehicle: Klucel (hydroxypropylcellulose) (HPC)) was 1 of 3. For the same molecule, the survivor count (dose: 200.0 mg/kg/injection, schedule: Q04DX002 (ip), vehicle: Klucel (hydroxypropylcellulose) (HPC)) was 1 of 3 and the survivor count [1] was 0 of 3.
